Mtb growth Cornell: 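Whole-cell assay for inhibitors of Mycobacterium tuberculosis growth, labelled Cornell in the record; the read-out is not stated. The concentration is filed as 10 mM, unlikely as a test dose, so the dose is not known. The record gives no direction; compounds strong in two other growth screens of this library score well above the rest, so higher reads as stronger inhibition. About 53,000 compounds were tested under these conditions; 1.7% (about 900) showed 50% or more at least once.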
Mtb heat-shock: 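Assay on Mycobacterium tuberculosis, filed only as a heat shock assay from Cornell; the read-out is not stated. The concentration is filed as 10 mM, unlikely as a test dose, so the dose is not known. Higher reads as stronger inhibition (inferred: compounds with an IC50 in retests scored well above the rest). Size under these conditions: about 69,000 compounds, about 930 of them at 50% or above in at least one test.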

Results are given as percent effect. How 0% and 100% were set is not recorded. Most values in the screen are low, and negative values occur. This is an unselected part of the compounds tested.

Fc1ccc(N2CCOC3(COCCN(c4ncccn4)C3)C2)cc1.O=C(O)C(F)(F)F (stereo not shown) read Mtb growth Cornell: -0.7585%; Mtb heat-shock: 10.61%.
Cn1cc(C(=O)N2CCCC2c2noc(C3CC3)n2)c2ccccc21 (stereo not shown) read Mtb heat-shock: -8.326%.
Cc1n[nH]c(C)c1C(N)C(=O)NCCc1csc(C(C)C)n1 (stereo not shown) read Mtb growth Cornell: 6.154%; Mtb heat-shock: 16.74%.
CC(C)C(C(=O)N1CCCN(Cc2cscn2)CC1)n1cncn1 (stereo not shown) read Mtb growth Cornell: -2.712%; Mtb heat-shock: -0.485%.
Cc1ccc(-c2ccnc(NC(c3ncccc3C)C3CC3)n2)c(C)n1 (stereo not shown) read Mtb growth Cornell: 5.649%; Mtb heat-shock: -3.022%.
O=C(O)C(F)(F)F.[H][C@@]12CN(Cc3ccccn3)C[C@]1([H])CN(C(=O)Cc1cccc(F)c1)C2 read Mtb growth Cornell: 21.88%; Mtb heat-shock: -18.18%.
CCOc1ncccc1C(=O)N1CCCC(n2nc(C)cc2C)C1 (stereo not shown) read Mtb growth Cornell: 13.01%; Mtb heat-shock: -12.37%.
CCc1nc(C2CCCN2C(=O)CCc2c(C)noc2Cl)no1 (stereo not shown) read Mtb growth Cornell: 9.012%; Mtb heat-shock: 10%.
CCC(C)Oc1cc(C(=O)Nc2nnc(C(C)C)[nH]2)ccn1 (stereo not shown) read Mtb growth Cornell: 18.75%; Mtb heat-shock: 12.78%.
O=C(NCc1ccccc1Cn1ccnc1)N1CCSCC1 read Mtb growth Cornell: 3.45%; Mtb heat-shock: -5.517%.
COc1ccc(S(=O)(=O)C(F)(F)F)cc1NC(=O)CSCC#N read Mtb growth Cornell: -11.55%; Mtb heat-shock: 3.78%.
[H][C@]12CC[C@]([H])(CN(C3Cc4ccccc4C3)C1)N(C(=O)N1CCOCC1)C2 read Mtb heat-shock: 2.193%.
CC(=O)NCc1nc(CC(C)C)nn1-c1cccc(C)c1 read Mtb growth Cornell: 44.29%; Mtb heat-shock: 14.16%.
Cc1n[nH]cc1CNCC(c1cccc(F)c1)N(C)C (stereo not shown) read Mtb growth Cornell: 9.668%; Mtb heat-shock: -11.96%.
Cc1cc2nc(SCC(=O)N3CCCC3)n(Cc3ccco3)c(O)c-2n1 read Mtb growth Cornell: 5.016%; Mtb heat-shock: -8.189%.
COc1ccc(CN2CCCCC2Cn2nc(C)nc2C)cc1F (stereo not shown) read Mtb heat-shock: -23.24%.
CCN(CC1CN(Cc2nc(C3CC3)no2)CCO1)c1cccnn1 (stereo not shown) read Mtb growth Cornell: 29.29%; Mtb heat-shock: 2.663%.
O=C(Nc1cnn(CCN2CCOCC2)c1)c1ccccn1 read Mtb heat-shock: -18.54%.
Fc1ccc(Nc2ccc(C3CCN(Cc4ncc[nH]4)CC3)nc2)nc1 read Mtb growth Cornell: 12.33%; Mtb heat-shock: -11.12%.
C[C@@H]1CN(c2nc3c(cc2C(N)=O)CCC3)C[C@]1(C)O read Mtb growth Cornell: 11.4%; Mtb heat-shock: 16.89%.
c1ccc(CCN2CCc3c(ncn3C3CC3)C2)nc1 read Mtb growth Cornell: -8.675%; Mtb heat-shock: 5.545%.
Cc1cccc(CNC2CC(=O)N(CCc3cccc(Cl)c3)C2)n1 (stereo not shown) read Mtb growth Cornell: 22.2%; Mtb heat-shock: -0.7459%.
Cc1cnc(C)c(-c2cc(O)c3c(c2)CN(c2nccs2)CCO3)n1 read Mtb growth Cornell: 4.597%; Mtb heat-shock: 8.433%.
CCOCCN1CCCC(c2cc(C(N)=O)[nH]n2)C1 (stereo not shown) read Mtb heat-shock: -16.96%.
Cc1cnn(CC2CN(Cc3cccc(C(N)=O)c3)CCO2)c1 (stereo not shown) read Mtb growth Cornell: -8.409%; Mtb heat-shock: -15.59%.
O=C(O)C(F)(F)F.O=C(O)C(F)(F)F.[H][C@@]12CC(COc3ccccn3)C[C@@]1([H])N(Cc1csc(C)n1)CCO2 (stereo partly shown) read Mtb growth Cornell: 12.3%; Mtb heat-shock: 3.752%.
CCc1nc(C)c(C(=O)N2CCNCC2C(=O)NCc2ccncc2)o1 (stereo not shown) read Mtb growth Cornell: -16.86%; Mtb heat-shock: -1.25%.
CCOc1ccc(Cl)c(C(=O)N2CCN(c3cnccn3)CC2)n1 read Mtb growth Cornell: -10.28%; Mtb heat-shock: -9.916%.
CC(C)C[C@H](Nc1nc(C2CCCC2)nc2c1cnn2C)C(N)=O read Mtb growth Cornell: -12.21%; Mtb heat-shock: 3.1%.
CCOc1cc(C)nc(N2CCN(C(=O)Cn3cc(C)cn3)CC2)n1 read Mtb heat-shock: -7.396%.
Cc1ccc(NC2CCN(C(=O)Cc3ccc(C#N)cc3)CC2)nn1 read Mtb growth Cornell: -0.9808%; Mtb heat-shock: 2.607%.
Cn1nnc2c1C(COCC1CC1)CN(C(=O)[C@H]1CCCO1)C2 (stereo partly shown) read Mtb growth Cornell: 5.708%; Mtb heat-shock: 3.081%.
CCNc1ncc(C(=O)N(C)Cc2nc3ccccc3n2C)cn1 read Mtb heat-shock: -10.65%.

The last 3 entries again:

{"structure": "Cc1ccc(NC2CCN(C(=O)Cc3ccc(C#N)cc3)CC2)nn1", "Mtb growth Cornell": -0.9808, "Mtb heat-shock": 2.607}
{"structure": "Cn1nnc2c1C(COCC1CC1)CN(C(=O)[C@H]1CCCO1)C2", "stereo": "stereo partly shown", "Mtb growth Cornell": 5.708, "Mtb heat-shock": 3.081}
{"structure": "CCNc1ncc(C(=O)N(C)Cc2nc3ccccc3n2C)cn1", "Mtb heat-shock": -10.65}

The values are deposited in ChEMBL (CHEMBL3988442, “University of Dundee, Small-Polar-MMV Screening Library” (2021)).